Assay results as given in PubChem BioAssay AID2733 (National Center for Advancing Translational Sciences (NCATS), 2010).
Inconclusive means that the source gave no clear call. Such entries were picked first, then a sample of the others. Potencies beside an inconclusive call are fits to weak or partial responses and may not hold up. Active and inactive are the calls of the source. The call rests on the fitted dose curve; in most records, active means well fitted inhibition curve with a large enough effect; inconclusive means small, poorly fitted or top-dose-only effect; inactive means flat fitted curve, though single readings scatter.

assay: High Content Assay for Compounds that inhibit the Assembly of the Perinucleolar Compartment: PC3M Cytotoxicity; conditions: PC3M cells, ATPLite luminescence viability, 24 h; series mostly up to 46.1 µM
Excerpt: High Content Assay for Compounds that inhibit the Assembly of the Perinucleolar Compartment
NIH Chemical Genomics Center [NCGC]
NIH Molecular Libraries Probe Centers Network [MLPCN]
Assay Submitter (PI): Sui Huang, Northwestern University, Feinberg School of Medicine, Cell and Molecular Biology, Chicago, Illinois.
The perinucleolar compartment (PNC) is a non-membrane-bound nuclear subdomain that is associated with but structurally distinct from the nucleolus. The PNC is a heritable trait, in which the number of PNCs per cell in daughter cells often mimics that of their mother cells. The PNC is heterogeneous in shape, is stable through interphase, disassembles during mitosis, and reassembles in early G1. The PNC is concentrated with newly synthesized RNA polymerase III (pol III) RNAs (MRP RNA, RNAse P H1 RNA, hY RNAs[hY1, 2, 5], Alu RNA, and SRP [7SL] RNA) and RNA binding proteins (nucleolin, PTB, CUG-BP, KSRP, Raver1, Raver2, and Rod).
Extensive in vitro studies have shown that the PNC is unique to tumor cells and preferentially forms in tumor cells derived from solid tissues. Examination of cancer cell lines from various origins and malignant capacities has shown that PNC prevalence correlates with the malignancy of tumors and has the potential to be developed as a pan-cancer prognostic marker.
Although the PNC is associated with a DNA locus and a handful of components have been identified, much remains to be investigated regarding the structure and function of the PNC and its mechanistic link to cancer. We have previously shown that PNC prevalence reduction is a valid strategy to identify compounds that can be used to study the structure and function of the PNC. It is necessary, however, to create a screening platform that is able to test a large number of compounds in an automated fashion. Here we report the development and robustness of an automated whole-cell phenotypic image-based screening assay that is capable of identifying such compounds.
We conducted a followup assay to measure the effect of the lead candidates on cell health by measuring ATP levels (ATPLite). The highly metastatic PC3M-GFP reporter cell line was used in this study.
1. Cells at a density of 75-90% confluency in T175 flasks were harvested using 7 ml TrypLE Express cell dissociation reagent. After dissociation (5 minutes room temperature incubation) 10 ml of complete media was added to the TrypLE/cell suspension. The liquid was transferred to a 50 ml Conical tube and cells were pelleted at 1000 RPM for 5 min. Supernatant was removed and cells were resuspended to a final density of 150-200 cells/ul in complete media.
2. Cells were plated in 5 ul volume (2000 cells/well) into 1536 well White solid bottom plates and allowed to recover and adhere at 37 C in a humidified 5% CO2 incubator for 4 hours.
3. After 4 hour incubation, compound libraries (23 nl of 12.5 uM in columns 5-48) were transferred to the plates in duplicate using a 1536 well pintool. Camptothecin positive control (59 uM final) was added to column 2 and 1:3 dilutions of camptothecin was added to column 3. DMSO negative controls were present in columns 1 and 4.
4. After a 24 hour incubation in the 37 C incubator, all wells were treated with 3 ul of ATPLite reagent using a multidrop combi dispenser (ThermoFisher). Bubbles that formed during dispensing were removed by spinning the plates for 1 minutre at 1500 RPM on a table top centrifuge.
5. Luminescencent signal was detected on a Viewlux CCD based imager (PerkinElmer) with a clear filter and a 30 second integration time.
The PC3M cell line stably expressing the PTB-GFP was provided by Sui Huang of Northwestern University. The media and cell culture reagents were purchased from Invitrogen (Carlsbad, CA), ATPLite came from PerkinElmer.

SMILES	Potency
CC12CCC(C(=O)NC(c3ccccc3)c3ccccc3)(OC1=O)C2(C)C (stereo not given)	inactive
CCCCN(C(=O)Nc1ccc(Cl)cc1)C1CCN(C(C)=O)CC1	inactive
CCN(CC)C(=O)N1c2ccccc2C=Cc2ccccc21	inconclusive: 3.16 µM [inhibitor, full curve]
CC(=O)c1ccc(-n2c(SCC(=O)c3c[nH]c4ccccc34)nc3ccccc3c2=O)cc1	inactive
C#CCn1c(S(=O)(=O)Cc2ccc(F)cc2)nc(-c2ccccc2)c1-c1ccccc1	inconclusive: 7.94 µM [inhibitor, full curve]
CC(C)(C)c1nc(SCC(=O)Nc2nc3c(s2)CCCC3)c2ccccc2n1	inconclusive: 7.08 µM [inhibitor, full curve]
CNC(=S)N/N=C/c1cn(CCOc2ccccc2OC)c2ccccc12	inconclusive: 35.5 µM [inhibitor, single point]
O=C(NCc1ccco1)C1CCN(Cc2ccc(F)cc2)CC1	inactive
CCN(CC)C(=S)SSC(=S)N(CC)CC	inconclusive: 3.98 µM [inhibitor, full curve, poor fit]
C/C(N)=C(/C#N)C(=O)COC(=O)c1cc(C)n(-c2ccc(F)cc2)c1C	active: 12.6 µM
CCN(CC)S(=O)(=O)c1ccc(C2=NOC3(C2)N(C)c2ccccc2C3(C)C)cc1 (stereo not given)	inconclusive: 11.2 µM [inhibitor, full curve]
COc1cc(C(=O)Oc2ccccc2/C=N/NC(=O)c2ccc(Cl)cc2)cc(OC)c1OC	active: 11.2 µM
CN(C)c1nc(OCCNC(=O)COc2ccccc2Cl)nc(N(C)C)n1	inconclusive: 31.6 µM [inhibitor, partial curve]
Cc1ccccc1C(=O)NNC(=S)Nc1cccc(C(F)(F)F)c1	inactive
CCOC(=O)c1c(NC(=O)c2c(-c3ccccc3)noc2C)sc(C)c1-c1ccccc1	inconclusive: 1.26 µM [inhibitor, full curve, poor fit]
CC(C)c1ccc(S(=O)(=O)/N=C2/C=C(Sc3ncn[nH]3)C(=O)c3ccccc32)cc1	inconclusive: 12.6 µM [inhibitor, full curve]
O=C(Nc1cccc(S(=O)(=O)N2CCCCCC2)c1)c1ccc2c(c1)OCO2	inconclusive: 31.6 µM [inhibitor, partial curve, poor fit]
CSc1nnc2c3ccccc3n(CCc3ccccc3)c2n1	inconclusive: 4.47 µM [inhibitor, full curve]
Cc1cc(=O)[nH]c(N=N/C(=N/Nc2ccccc2C)c2ccccc2)n1	inconclusive: 7.08 µM [inhibitor, full curve]
N=c1c2c(-c3ccccc3)c(-c3ccccc3)n(Cc3ccccc3)c2ncn1CCCO	inactive

3 structures already listed, arranged by molar mass, descending:
SMILES	Potency
N=c1c2c(-c3ccccc3)c(-c3ccccc3)n(Cc3ccccc3)c2ncn1CCCO	inactive
CC(C)(C)c1nc(SCC(=O)Nc2nc3c(s2)CCCC3)c2ccccc2n1	inconclusive: 7.08 µM [inhibitor, full curve]
CCN(CC)C(=O)N1c2ccccc2C=Cc2ccccc21	inconclusive: 3.16 µM [inhibitor, full curve]

(more compounds)

SMILES	Potency
C/C(=N/OCO/N=C(/C)c1ccc(F)cc1)c1ccc(F)cc1	inconclusive: 11.2 µM [inhibitor, full curve]
O=C(NC(CSCc1ccccc1)C(=O)N/N=C/c1ccc(O)cc1O)c1ccc([N+](=O)[O-])cc1 (stereo not given)	inconclusive: 10 µM [inhibitor, full curve]
O=C(N/N=C/c1cc2c3c(c1O)CCCN3CCC2)c1ccccc1O	active: 3.16 µM
COc1cc(NC(=S)NC(=O)c2ccc(C(C)(C)C)cc2)ccc1NC(=O)c1cccs1	inconclusive: 4.47 µM [inhibitor, full curve]
Cc1c(NC(=O)CSc2nnc3c4ccccc4n(CCc4ccccc4)c3n2)c(=O)n(-c2ccccc2)n1C	inconclusive: 7.94 µM [inhibitor, full curve]
Cc1sc2nc(C3CC3)nc(SCC(=O)N3c4ccccc4CC3C)c2c1C (stereo not given)	inconclusive: 7.94 µM [inhibitor, full curve]
Cn1c2ccccc2c(=O)c2c(=O)n(Cc3ccco3)c(COc3ccccc3)nc21	inconclusive: 11.2 µM [inhibitor, full curve, poor fit]
Cc1ccc(S(=O)(=O)N(C)c2ccc(OCC(=O)Nc3nc4ccccc4s3)cc2)cc1	inconclusive: 22.4 µM [inhibitor, partial curve]
N=c1c2c(-c3ccccc3)c(-c3ccccc3)n(Cc3ccco3)c2ncn1CCCn1ccnc1	inconclusive: 35.5 µM [inhibitor, single point]
CCOC(=O)Cn1c(-c2nonc2NC(=O)c2ccccc2F)nc2ccccc21	active: 4.47 µM
CCCSc1cc(N2CCN(C)CC2)nc(-c2ccc(OC)cc2)n1	inactive
Cc1cnc(NC(=O)COc2cccc3c2OC(C)(C)C3)s1	inconclusive: 7.94 µM [inhibitor, full curve]
O=C1C(=Cc2cccs2)C(=O)c2ccccc21	inactive
CCOC(=O)c1c(-c2cccc(C)c2)csc1NC(=O)c1c(-c2ccccc2)noc1C	inconclusive: 3.98 µM [inhibitor, full curve]
Cc1cc(C(=O)COc2ccccc2Cl)c(C)n1-c1ccc2c(c1)OCO2	inconclusive: 10 µM [inhibitor, full curve]
Cc1cccc(/C=C(\c2nc3ccccc3[nH]2)S(=O)(=O)c2ccccc2)c1	inconclusive: 35.5 µM [inhibitor, single point]
CN(C)c1ccc(N=Nc2ccccc2C(=O)OCC(=O)NC2CCCC2)cc1	inactive
O=C(COC(=O)Cc1ccsc1)NCC1CCCCC1	inactive
O=C1C(=O)c2ccc(-c3ccccc3)cc2-c2ccccc21	active: 15.8 µM
COc1ccc(-c2cc(C#N)nc(N3CCN(C)CC3)n2)cc1	inactive
